# Measurements from PubChem BioAssay AID504327 (National Center for Advancing Translational Sciences (NCATS), 2011).
# By UniProt entry, the sequences of proteins in these tests, tags left out.
# UniProt Q92830, whole entry, looked up: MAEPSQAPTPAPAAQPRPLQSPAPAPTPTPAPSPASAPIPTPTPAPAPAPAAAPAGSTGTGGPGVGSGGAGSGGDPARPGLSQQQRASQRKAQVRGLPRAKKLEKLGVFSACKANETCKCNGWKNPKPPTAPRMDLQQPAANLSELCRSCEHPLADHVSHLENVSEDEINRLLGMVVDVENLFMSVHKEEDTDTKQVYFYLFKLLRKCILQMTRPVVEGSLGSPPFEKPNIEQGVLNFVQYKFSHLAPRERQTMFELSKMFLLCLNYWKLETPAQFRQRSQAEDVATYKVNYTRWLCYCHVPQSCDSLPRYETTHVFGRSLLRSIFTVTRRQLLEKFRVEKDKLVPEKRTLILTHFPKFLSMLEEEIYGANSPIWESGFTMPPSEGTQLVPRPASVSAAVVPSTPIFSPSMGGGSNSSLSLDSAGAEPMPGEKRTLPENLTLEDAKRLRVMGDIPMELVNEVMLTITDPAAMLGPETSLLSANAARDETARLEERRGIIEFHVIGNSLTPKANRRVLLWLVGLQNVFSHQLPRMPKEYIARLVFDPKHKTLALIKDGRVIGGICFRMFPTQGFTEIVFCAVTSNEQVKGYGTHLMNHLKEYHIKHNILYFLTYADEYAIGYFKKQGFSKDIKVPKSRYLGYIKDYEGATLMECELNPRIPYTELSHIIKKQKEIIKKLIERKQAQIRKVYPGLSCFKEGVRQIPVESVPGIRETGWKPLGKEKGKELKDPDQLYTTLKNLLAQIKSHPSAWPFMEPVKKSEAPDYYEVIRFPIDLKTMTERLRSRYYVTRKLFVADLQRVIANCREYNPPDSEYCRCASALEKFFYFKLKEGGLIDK
# About 820 (0.21%) of roughly 390,000 compounds were called active. The shares of active, inactive and inconclusive entries below differ from those in the screen. The call rests on the fitted dose curve; in most records, active means well fitted inhibition curve with a large enough effect; inconclusive means small, poorly fitted or top-dose-only effect, or another doubt; inactive means no such curve, though single readings can be large or run the other way. Potencies of inconclusive entries are doubtful fits and often do not repeat.
# Target: Histone acetyltransferase KAT2A (Homo sapiens) (UniProt Q92830)
# Assay: qHTS Assay for Inhibitors of GCN5L2
# Conditions: GCN5L2 HAT assay, ThioGlo1 CoA-SH fluorescence; activity change, negative = inhibition: at 58.9 µM (top of the series) unless noted
# Method in brief: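 Compounds, pin-transferred from DMSO stocks, meet 20nM GCN5L2 for 15 min before the reaction begins with H3(1-25) peptide (75uM) and acetyl-CoA (70uM). Thiol-reactive ThioGlo1 reports CoA release over 20 min at room temperature.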
# On the % scale 0 is the no-effect control and ±100 the full control effect; potency means the concentration at half of the fitted maximal effect.
SMILES,"activity change, negative = inhibition",Potency
COc1ccc(/C=C(\NC(=O)c2ccccc2)C(=O)N/N=C/c2cccnc2)cc1,inactive: 0.142%,
CCN(CC)C(=O)c1c(-c2ccccc2)oc2ccc(O)cc12,,"inconclusive: 7.08 µM [inhibitor, single point]"
CN(C)c1ccc(C2(c3ccc(N(C)C)cc3)OC(=O)c3cc(N)ccc32)cc1,,"inconclusive: 44.7 µM [inhibitor, single point]"
COc1ccc(N2Cc3cccc(C(=O)Nc4ccc(F)cc4)c3C2=O)cc1,,"inconclusive: 15.8 µM [inhibitor, partial curve]"
CCOCCCNC(=O)CCS(=O)(=O)Cc1ccc(C)cc1,,"inconclusive: 0.708 µM [inhibitor, single point]"
COc1ccc(-n2ncc(C(=O)Nc3cccc(C(F)(F)F)c3)c2C2CCN(C(=O)OC(C)(C)C)CC2)cc1,inactive: 25.2%,
C/C(=N\Nc1ccc(F)cc1)c1ccc(N2CCOCC2)c(F)c1,,"inconclusive: 7.08 µM [inhibitor, single point]"
Cc1c(C(=O)NCCc2ccc(Cl)cc2)sc2nc3n(c(=O)c12)CCCC3,,"inconclusive: 20 µM [inhibitor, partial curve]"
Cc1nc(-c2coc3c(CN(C)C)c(O)ccc3c2=O)cs1,inactive: -20.4%,
COc1ccc(NC(=S)NC(=NS(=O)(=O)c2ccc(Cl)cc2)c2ccccc2)cc1,inactive: 0.236%,
Cn1c(=O)c(-c2cccs2)nc2cnc(N3CCNCC3)nc21,,"inconclusive: 31.6 µM [inhibitor, single point]"
CCN(CC)c1ccc(NC(=O)c2sc3nc4c(cc3c2N)CN(C)CC4)cc1,inactive: -3.19%,
CCn1c(C(=O)N2CCCC(C(=O)N3CCN(c4cc(C)ccc4C)CC3)C2)cc2sccc21 (centres undefined),inactive: -8.27%,
Cc1ccc(/C=N/Nc2ccc(C(=O)O)cc2)s1,,"inconclusive: 35.5 µM [inhibitor, single point]"
COc1ccccc1-c1c(-c2ccc(OCC(=O)NN)cc2O)n[nH]c1C(F)(F)F,inactive: 1.03%,
CCNc1ncc2nc(-c3cc(F)cc(F)c3)c(=O)n(CCc3ccccc3)c2n1,,"inconclusive: 39.8 µM [inhibitor, single point]"
CCOc1ccc(-c2c(C(=O)N/N=C/c3c[nH]c4ccccc34)nnn2-c2nonc2N)cc1,,"inconclusive: 39.8 µM [inhibitor, single point]"
COC(=O)N1CCN(c2ccc(Cl)c(Cl)c2)CC1,inactive: -6.04%,
Cc1nc(Cl)c(C(=O)NCCc2ccccc2)c(C)c1[N+](=O)[O-],,"inconclusive: 3.55 µM [inhibitor, partial curve, poor fit]"
CCNC(=O)NC(=O)CSc1nc2ccccc2n1CC(C)C,,"inconclusive: 3.98 µM [inhibitor, single point]"
CC1(OC(=O)CCc2ccccc2)C(=O)C=C2C=C(c3ccc(C#N)cc3)N(CCc3c[nH]c4ccccc34)C=C2C1=O (centres undefined),inactive: -3.44%,
O=c1c2cnn(-c3ccccc3)c2nc(-c2cccs2)n1-c1ccc(Cl)cc1,,"inconclusive: 0.631 µM [inhibitor, partial curve, poor fit]"

SMILES,"activity change, negative = inhibition",Potency
O=c1c(-c2c(O)cc(O)c3c2O[C@H](c2ccc(O)cc2)CC3)c(-c2ccc(O)cc2)oc2cc(O)cc(O)c12,,"inconclusive: 39.8 µM [inhibitor, single point]"
COC(=O)c1ccccc1OCC(=O)NC1CCCCC1,,"inconclusive: 0.794 µM [inhibitor, partial curve, poor fit]"
COc1ccc(NC(=O)c2ccc(COc3ccccc3OC)o2)cc1OC,,inactive
O=C(O)CC/C=C\CC[C@H]1[C@@H](N2CCCCC2)[C@@H](O)C[C@@H]1OCc1ccc(-c2ccccc2)cc1,inactive: -6.19%,
Fc1ccc2cnc(-c3ccccc3)c(-c3ccc(C(F)(F)F)cc3)c2c1,inactive: -6.81%,
CCOc1ccc(S(=O)(=O)N2CCN(C)CC2)c(C)c1C,,"inconclusive: 25.1 µM [inhibitor, single point]"
O=c1ccc(C(F)(F)F)cn1Cc1cc(=O)n2cc(Br)ccc2n1,,"inconclusive: 31.6 µM [inhibitor, single point]"
Cc1ccc(S(=O)(=O)N2CCCC(C(=O)N3CCN(c4ccccc4)CC3)C2)cc1 (centres undefined),,"inconclusive: 1.12 µM [inhibitor, full curve, poor fit]"
COc1cc(C(=O)NC(=S)Nc2ccccc2N2CCOCC2)cc(OC)c1OC,inactive: -12.4%,
Cc1cccc(/C(N)=N/OC(=O)Cc2cccs2)c1,,"inconclusive: 2.51 µM [inhibitor, partial curve, poor fit]"
COc1ccc(NC(=O)C2CC(=O)n3ncnc3N2)cc1 (centres undefined),inactive: -0.636%,
CC(C)(C)c1ccc(C2C3=C(CCCC3=O)NC3=C2C(=O)c2ccccc23)cc1 (centres undefined),inactive: -6.89%,
c1ccc(-c2nn3nnnc3c3ccccc23)cc1,,"inconclusive: 39.8 µM [inhibitor, single point]"
CC(C)OP(=O)(OC(C)C)C(NC(=O)c1ccccc1)C(N)=O (centres undefined),,"inconclusive: 0.708 µM [inhibitor, single point]"
CC(=O)COC(=O)c1cc(-c2ccc(C)cc2)nc2ccccc12,,"inconclusive: 7.08 µM [inhibitor, single point]"
Cc1cc(N2C(=O)C(O)=C(C(=O)c3cc4ccccc4o3)C2c2ccc(OC(C)C)cc2)no1 (centres undefined),,"inconclusive: 39.8 µM [inhibitor, single point]"
COc1cc(/C=C2\SC(=S)NC2=O)ccc1OS(=O)(=O)c1ccccc1,,"inconclusive: 35.5 µM [inhibitor, single point]"
Cc1cccc(C(=O)NCCc2ccc(S(N)(=O)=O)cc2)c1[N+](=O)[O-],inactive: -0.425%,
Cc1ccc(N2C(=O)c3ccc(N)cc3C2=O)cc1C,,"inconclusive: 31.6 µM [inhibitor, partial curve]"
Cc1ccc(CNC(=O)C2CCCN(S(=O)(=O)c3ccc4c(ccn4C)c3)C2)cc1 (centres undefined),inactive: 2.84%,
CC(C)(C)c1ccc(C(=O)NNc2cc(Cl)cc(Cl)c2)cc1,,"inconclusive: 0.708 µM [inhibitor, full curve, poor fit]"
COc1ccc(C2=NN(c3ccccc3)C(c3cn(CCC(=O)O)nc3-c3ccccc3)C2)cc1 (centres undefined),,"inconclusive: 28.2 µM [inhibitor, single point]"

# Structures above that contain two or more sulfur atoms (two):
SMILES,"activity change, negative = inhibition",Potency
COc1ccc(NC(=S)NC(=NS(=O)(=O)c2ccc(Cl)cc2)c2ccccc2)cc1,inactive: 0.236%,
COc1cc(/C=C2\SC(=S)NC2=O)ccc1OS(=O)(=O)c1ccccc1,,"inconclusive: 35.5 µM [inhibitor, single point]"
